Assay results reported in patent publication US8350062B2, “Synthesis and anticancer activity of new actin-targeting small-molecule agents” (priority 2009, dated 2013).

Test system: 60 different human tumor cell lines
Assay: NCI 60 cell line single dose screen, whole panel
Type: cell-based
Conditions: 10 micromolar
Excerpt: Analog 10 was screened utilizing 60 different human tumor cell lines, representing leukemia, melanoma and cancers of the lung, colon, brain, ovary, breast, prostate, and kidney in order to show selective growth inhibition or cell killing of particular tumor cell lines. This screen is unique in that the complexity of a 60 cell line dose response produced by a given compound results in a biological response pattern which can be utilized in pattern recognition algorithms (COMPARE program. See: http://dtp.nci.nih.gov/docs/compare/compare.html). Using these algorithms, it is possible to assign a putative mechanism of action to a test compound, or to determine that the response pattern is unique and not similar to that of any of the standard prototype compounds included in the NCI database. […]
Following drug addition, the plates are incubated for an additional 48 h at 37° C., 5% CO2, 95% air, and 100% relative humidity. […] Bound stain is subsequently solubilized with 10 mM trizma base, and the absorbance is read on an automated plate reader at a wavelength of 515 nm. […] Using the absorbance measurements [time zero, (Tz), control growth, (C), and test growth in the presence of drug (Ti)], the percentage growth is calculated.

SMILES: COCCC(=O)NC[C@H](O)[C@H](C)C(=O)NCCC[C@H]1O[C@@]2(CCC[C@@H](CC[C@H](C)/C=C(\C)[C@H](C)O)O2)CCC1C (some centres unmarked) [Analog 10]
- Growth Percent, Delta: 87.55%
- Growth Percent, Range: 151.10%
